The supplement of paper PMC5949888
Most values lie at the floor of the assay. Slopes are relative: functional sequences can read slightly below zero.

The substances below were run on Saccharomyces cerevisiae PS128 hsf1 delta, HSF1(1-493) fusion (assay: growth estimate (transactivation domain function in HSF1 fusion, heat-shock survival) (a.u. (slope of normalised read count over time)); higher = stronger growth at 37°C, i.e. more transactivation activity). Details: library: random library.

Substance	growth estimate
VDCSARD	< -0.25
VDDVRIV	< -0.25
VDETRYALTQRDTIGKNGHS	< -0.25
VDGFLGNSTMSNGAHKGMTR	< -0.25
VDGGPWQASSPPSQLASRSS	< -0.25
VDI	< -0.25
VDLDCRITRVRHPGTTY	< -0.25
VDLFNMRLRFFIGSFFQYRA	< -0.25
VDLLLLCDSNLALSTNRFKC	< -0.25
VDLLNKVLAHVAISSG	< -0.25
VDQEHIIVATSFWLY	< -0.25
VDREFEYPVRLSGGQLTGAH	< -0.25
VDRIGLGPVYIFLTTSEHLA	< -0.25
VDRKAGPLHMTIYDLLAPGA	< -0.25
VDRRLARYRVHSAQKRRLSS	< -0.25
VDRSTSTQNVVSMFSSHL	< -0.25
VDTGEWHAFQEVSVFQPPGW	-0.153
VDTSDPDQF	< -0.25
VDTTV	< -0.25
VDVVPGGSPTQGRMFATVSR	< -0.25
VEAAAAE	< -0.25
VEAHLFFEARHIAV	< -0.25
VEAHLS	< -0.25
VEATDYS	< -0.25

Substance	growth estimate
VEAVFAGGTF	< -0.25
VEDGRVMPIKPAGRQSPERS	< -0.25
VEEECVITTLERFSYLH	< -0.25
VEGGKVKKLKHEPSAISRGS	< -0.25
VEGIGLCYIPVLNSHTVSPG	< -0.25
VEGPTGA	< -0.25
VEGTLESQAISSKRHDMPAA	< -0.25
VEHMSRSGINLSLNGVC	< -0.25
VELGNAQALAISLIELRTMV	< -0.25
VELR	< -0.25
VENFPGYLVDHIWREAYSP	< -0.25
VENQW	< -0.25
VEPGDVGRRVTSVLSIEITY	< -0.25
VEPGGDPTLVFGYVSGEPKP	< -0.25
VEREASRS	< -0.25
VERKRPLPQSVPAGQFDNSA	< -0.25
VERLHRME	< -0.25
VESATVLVGEFYVALPC	< -0.25
VESVRKRHYKR	< -0.25
VETEHSR	< -0.25
VETIAPVKFRNHHAATAAPL	< -0.25
VETSRNVKDNGYRFTRRCMA	< -0.25
VETVDSRSEALRNTKRASHV	< -0.25
VEWS	< -0.25

Substance	growth estimate
VFAL	< -0.25
VFDVLGDV	< -0.25
VFFLSHALHVKPVQCSPHRT	< -0.25
VFGAQGGWYLRQFGLFWESG	< -0.25
VFIIRLRFHDSQQTCYFSSL	< -0.25
VFISL	< -0.25
VFLCRQVRIDWTRPSRGRII	< -0.25
VFLPTTSENVLRTVSIDNVR	< -0.25
VFMRKVTHGGQWLRLI	< -0.25
VFPESASKYCINIARINLGR	< -0.25
VFRAIGLYRCCTREATVCSK	< -0.25
VFSLIVPSR	< -0.25
VFSTSYWARDCALEPWMFLS	< -0.25
VFYLSVPCIHSRLSGSCDRV	< -0.25
VGAFRYNE	< -0.25
VGASGLQAGRVLLKRSAP	< -0.25
VGAVVVQQSVKTQLDAENHK	< -0.25
VGCNGSRQEQTRDYPAECSG	< -0.25
VGCQ	< -0.25
VGCRTCPRSP	< -0.25
VGCVMGPFRSERIATQDCGI	< -0.25
VGERGNGVPALRPSLFI	< -0.25
VGFKSGGPCWTAITSLPCSC	< -0.25
VGFRISFRGPRLPIAKRGR	< -0.25

Substance	growth estimate
VGFVRMSQFWTVVPNVLTCN	< -0.25
VGGLETCASLPTSGTHYVLR	-0.0944
VGGLI	< -0.25
VGGLRSETFPPASVESGVWP	< -0.25
VGGSQGFCFRASSLYPCGPT	< -0.25
VGGVKARLAQTQGSQLSGLD	< -0.25
VGHARLVFVYTLQGPQPHRC	< -0.25
VGHLCGLTIRGKLCAVNKCR	< -0.25
VGHPVWIRWRSPSPMFRHRV	0.0038
VGHTD	< -0.25
VGIGFHLAWRAATLLVLM	< -0.25
VGKIGGSRGSKYTSDTGLV	< -0.25
VGLGAPSLVVSRLSNIA	< -0.25
VGLILLAGLDVRETYGYIWI	< -0.25
VGLLGLEGGIKGPSD	< -0.25
VGLPNPISVHSLLNDMALSA	< -0.25
VGLPSHRIAMHECIDRQAGT	< -0.25
VGLQF	< -0.25
VGLSDRSGSTRCGFKRARTS	< -0.25
VGMEFAHWKRRALGMASVSE	< -0.25
VGNEAPQHSHINWRVLAS	< -0.25
VGNLTPGPL	< -0.25
VGPENYRTVSIGKADLC	< -0.25
VGPLVRPL	< -0.25

Substance	growth estimate
VGQPPVGDSDWILMKRLS	< -0.25
VGQRALNGICFGVRFPFEND	< -0.25
VGREKGGSKRDSTIRPIKH	< -0.25
VGRNRVFCNCRRS	< -0.25
VGRPWRRAGSANTPRRPIRS	< -0.25
VGRRARLPGVVSLRVALIMA	< -0.25
VGRVW	< -0.25
VGSI	< -0.25
VGSIGAAIHNYGDRVCGKKR	< -0.25
VGSM	< -0.25
VGSTWPFPVNLHYQWGKTQV	< -0.25
VGTIYTTRCASLDLTRG	< -0.25
VGTRKLPDVSSSIID	< -0.25
VGTRTEHAK	< -0.25
VGTSSFTVGFAGTDAS	< -0.25
VGVCACAL	< -0.25
VGVPHTLAGSPLASEYAE	< -0.25
VGVRQRSGQCEVPFEPKVPG	< -0.25
VGVRRWMRWRRQ	< -0.25
VGVYCVDASVFVAQP	< -0.25
VGWEQVTFTLTLSCLEYANM	< -0.25
VGYFITMHALMKKGPLFFLF	< -0.25
VGYGVRRT	< -0.25
VGYQLVAWGYATGTLNTSTP	< -0.25

Substance	growth estimate
VHEPYEEK	< -0.25
VHFRT	< -0.25
VHGDSALVLSAVTRYVTRTY	< -0.25
VHGNDPAA	< -0.25
VHGSSVEF	< -0.25
VHHALQNRF	< -0.25
VHHSFIESRYLHFRPRENGI	< -0.25
VHIVKWLELLGLSTHSETRG	< -0.25
VHKGRHFVHLMTYESVDWV	< -0.25
VHL	< -0.25
VHLGRLRTCRGICGCRADLS	< -0.25
VHLIH	< -0.25
VHLLVCGGSHFGLVPRVLTF	< -0.25
VHPPDLRATVWAAFGVYDDC	< -0.25
VHRIVPYG	< -0.25
VHRKNNGDHRRPGLNSRSMG	< -0.25
VHRRKTSGRREN	< -0.25
VHSAATPGLS	< -0.25
VHTVVRLCRVEVGVAIPGGP	< -0.25
VHV	< -0.25
VHVRDRSIARCLISMNGSD	< -0.25
VHVVQA	< -0.25
VHWRSRGMKKETLILGSVAY	< -0.25

31 successive records already listed, quoted:
Substance	growth estimate
VEDGRVMPIKPAGRQSPERS	< -0.25
VEEECVITTLERFSYLH	< -0.25
VEGGKVKKLKHEPSAISRGS	< -0.25
VEGIGLCYIPVLNSHTVSPG	< -0.25
VEGPTGA	< -0.25
VEGTLESQAISSKRHDMPAA	< -0.25
VEHMSRSGINLSLNGVC	< -0.25
VELGNAQALAISLIELRTMV	< -0.25
VELR	< -0.25
VENFPGYLVDHIWREAYSP	< -0.25
VENQW	< -0.25
VEPGDVGRRVTSVLSIEITY	< -0.25
VEPGGDPTLVFGYVSGEPKP	< -0.25
VEREASRS	< -0.25
VERKRPLPQSVPAGQFDNSA	< -0.25
VERLHRME	< -0.25
VESATVLVGEFYVALPC	< -0.25
VESVRKRHYKR	< -0.25
VETEHSR	< -0.25
VETIAPVKFRNHHAATAAPL	< -0.25
VETSRNVKDNGYRFTRRCMA	< -0.25
VETVDSRSEALRNTKRASHV	< -0.25
VEWS	< -0.25
VFAL	< -0.25
VFDVLGDV	< -0.25
VFFLSHALHVKPVQCSPHRT	< -0.25
VFGAQGGWYLRQFGLFWESG	< -0.25
VFIIRLRFHDSQQTCYFSSL	< -0.25
VFISL	< -0.25
VFLCRQVRIDWTRPSRGRII	< -0.25
VFLPTTSENVLRTVSIDNVR	< -0.25
